Reference: patent US20210087238A1, “CELL PENETRATING PEPTIDES AND RELATED COMPOSITIONS AND METHODS” (Phylogica Limited, priority 2017, published 2021)
Part of at least one peptide drawing is inferred or uncertain, most often the ends. Where a SMILES comes first, the peptide text is derived from it.

Key:
Assay type in all cases: cell-based
[1] = system: CHO-K1 cells; experiment: PAP cell viability assay: SpyC_PAP conjugated to CPP_SpyT, resazurin reduction; details: relative to parental FPP1
Experimental: With the exception of SpyC PAS proteins, conjugations were set up at a SpyCatcher:SpyTag ratio of 1:1.25, with a 40 μM final concentration for the SpyCatcher moiety. SpyC proteins and SpyTag peptides were incubated for 2 h at 22° C. with gentle mixing, and then left at 4° C. overnight. Conjugation efficiencies were analyzed on 4-16% SDS-PAGE gels stained with Gel Code Blue Reagent (Thermo Fisher Scientific). SpyC_PAS proteins were conjugated with SpyTag peptides at ratio 1:1.1, mixed and incubated at room temperature for 30 mins before being stored overnight at 4° C.
(§1) All assays followed manufacturer's instructions.
SpyC-PAP/CPP-SpyT complex IC50s were ranked according to potency to determine impact of changes to primary CPP sequence. […] SpyC_BLA/CPP-SpyT complex median cell fluorescence at 4 μM concentration was ranked according to intensity to determine impact of changes to primary CPP sequence. […]
For the first readout of functional activity we chose the proapoptotic peptide PAP (SEQ ID NO:61; Ellerby et al 1999, Nat Med, 5, 1032-1038) as a functional cargo and expressed it recombinantly, fused to SpyCatcher (SEQ ID NO:83) (abbreviated as “SpyC_PAP” or “SpyC-PAP”; SEQ ID NO:62) to enable subsequent conjugation with synthetic CPP-SpyTag fusion proteins. […]

[2] = system: CHO-K1 cells; experiment: β-Lactamase (BLA) bioassay, CCF2-AM cleavage by flow cytometry
Experimental: CHO-K1 cells (seeded at 1×10^5 cells/well in 24-well plates) were incubated with purified SpyC_BLA (SEQ ID NO:90) and SpyC_BLA_FPP1.1 (SEQ ID NO:91) proteins at […]/5% CO2 for 2 hours. Cells were washed, detached by 5 mins incubation with trypsin, washed, loaded with the β-lactamase substrate CCF2-AM and analysed by Flow Cytometry; intracellular β-lactamase activity caused an emission shift from 510 nm to 450 nm. The percentages of β-lactamase positive cells for each sample were graphed against the concentration of protein added to the cells. […]
β-Lactamase is a bacterial enzyme that catalyses the opening of β-lactam rings. […] To address this need, β-Lactamase was expressed as C-terminal SpyC fusion, making SpyC-BLA (SEQ ID NO:90). […]
CCF2-AM (Thermofisher Scientific, Australia) is a Fluorescence Resonance Energy Transfer (FRET) substrate that is enzymatically cleaved by β-Lactamase. […] In the presence of β-Lactamase, the fluorescein moiety of CCF2 is enzymatically cleaved, resulting in the emission wavelength shifting to 447 nm (blue). β-Lactamase activity is quantified by measuring the ratio of blue fluorescence to green fluorescence.
The cell-penetrating and endosomal escape ability of FPP1.1 (SEQ ID NO:39) and sequence variant SpyC-BLA/CCP-SpyT conjugates was assessed by flow cytometry to determine cytosolic CCF2-AM cleavage by internalized β-Lactamase. […]

[3] = system: AMO-1, HL-60, and T47D cell lines; experiment: Omomyc cell viability assay, statements made for all three cell lines together; details: 48 h; ATP activity; AMO-1, HL-60, T47D
Experimental: Treatment of (A) AMO-1 (plasmacytoma), (B) HL-60 (promyelocytic leukemia), and (C) T47D (breast cancer) cell lines with FPP-1.1_Omomyc protein. After 48 h incubation, cell viability was assessed by measuring ATP activity. […] Results are representative of two independent experiments. Error bars represent standard deviation from the mean of duplicate samples.
Treatment of AMO-1 (plasmacytoma), HL-60 (promyelocytic leukemia), and T47D (breast cancer) cell lines with FPP1.1_Omomyc or small molecule inhibitors. After a 48 h incubation, the cell viability was assessed by measuring ATP activity. […] Results are from one independent experiment. Error bars represent standard deviation from the mean of duplicate samples.
as §1

Q: How did the “effect of truncation or mutation on CPP potency” value [1] turn out when C[C@@H](O)[C@H](NC(=O)[C@H](CCCCN)NC(=O)[C@@H]1CCCN1C(=O)[C@H](CCCCN)NC(=O)[C@H](CCCCN)NC(=O)[C@@H]1CCCN1C(=O)[C@H](CCCCN)NC(=O)[C@@H]1CCCN1C(=O)[C@@H]1CCCN1C(=O)[C@H](CCC(N)=O)NC(=O)[C@H](CCCCN)NC(=O)[C@H](CCCCN)NC(=O)[C@H](CCCCN)NC(=O)[C@@H](N)CCCCN)C(=O)N[C@@H](CCC(N)=O)C(=O)N[C@@H](CCC(=O)O)C(=O)N[C@@H](CCCCN)C(=O)N[C@@H](CCCCN)C(=O)N[C@@H](CCCCN)C(=O)N[C@@H](CCCCN)C(=O)N[C@@H](CCC(N)=O)C(=O)N1CCC[C@H]1C(=O)N1CCC[C@H]1C(=O)N[C@@H](CCCCN)C(=O)N1CCC[C@H]1C(=O)N[C@@H](CCCCN)C(=O)N[C@@H](CCCNC(=N)N)C(=O)O [FPP1.1] (H-KKKKQPPKPKKPKTQEKKKKQPPKPKR-OH) was run?
A: The value was “minimum domain sufficient for potent activity”.

Q: And the “β-lactamase activity relative to unconjugated SpyC-BLA” value ([2]; SpyC-BLA/CPP-SpyT conjugate, FIG. 7)?
A: The value was roughly 20 fold.

Q: And the “delivery of BLA to the cytosol” value ([2]; SpyC-BLA/CPP-SpyT conjugates, comparator TAT-SpyTag conjugate)?
A: The value was “higher level of BLA delivery than the canonical CPP, TAT”.

Q: And the “effect on cell viability” value [3]?
A: The value was “no significant cytotoxicity”.
